This is a selection; strong and weak results do not stand in their true shares. At the low end of the ranking the order means little.
These sequences were tested against T1, FLI1 (UniProt Q01543) (assay: DAPPL (digital affinity profiling via proximity ligation, sequencing)). Details: 10 mM Tris-HCl pH 7.5, 50 mM NaCl, 1 mM DTT, 4% glycerol, room temperature, 30 min; GST-TFs on glutathione beads, 16-mer random dsDNA library, 0.1% …; high values mean tight binding; double strand, one strand shown; scale: fold enrichment (6-mer frequency, TF over GST control).
T1 sequence: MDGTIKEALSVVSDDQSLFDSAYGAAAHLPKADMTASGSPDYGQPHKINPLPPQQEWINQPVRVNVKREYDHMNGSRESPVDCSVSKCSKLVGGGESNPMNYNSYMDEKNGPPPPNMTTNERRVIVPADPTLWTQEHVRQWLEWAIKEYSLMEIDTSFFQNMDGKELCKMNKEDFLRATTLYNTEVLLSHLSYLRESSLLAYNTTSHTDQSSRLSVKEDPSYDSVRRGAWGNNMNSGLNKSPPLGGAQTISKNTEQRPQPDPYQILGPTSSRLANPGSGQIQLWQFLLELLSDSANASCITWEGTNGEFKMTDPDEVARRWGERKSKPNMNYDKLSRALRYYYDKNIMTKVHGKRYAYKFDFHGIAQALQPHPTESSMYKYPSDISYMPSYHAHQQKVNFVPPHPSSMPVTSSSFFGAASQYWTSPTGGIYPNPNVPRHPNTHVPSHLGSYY

Chains of the proteins cited; added tags and fusions are not shown. Lines headed by an entry give the natural chain unless they say otherwise; changes in a name come on top.
UniProt P41161: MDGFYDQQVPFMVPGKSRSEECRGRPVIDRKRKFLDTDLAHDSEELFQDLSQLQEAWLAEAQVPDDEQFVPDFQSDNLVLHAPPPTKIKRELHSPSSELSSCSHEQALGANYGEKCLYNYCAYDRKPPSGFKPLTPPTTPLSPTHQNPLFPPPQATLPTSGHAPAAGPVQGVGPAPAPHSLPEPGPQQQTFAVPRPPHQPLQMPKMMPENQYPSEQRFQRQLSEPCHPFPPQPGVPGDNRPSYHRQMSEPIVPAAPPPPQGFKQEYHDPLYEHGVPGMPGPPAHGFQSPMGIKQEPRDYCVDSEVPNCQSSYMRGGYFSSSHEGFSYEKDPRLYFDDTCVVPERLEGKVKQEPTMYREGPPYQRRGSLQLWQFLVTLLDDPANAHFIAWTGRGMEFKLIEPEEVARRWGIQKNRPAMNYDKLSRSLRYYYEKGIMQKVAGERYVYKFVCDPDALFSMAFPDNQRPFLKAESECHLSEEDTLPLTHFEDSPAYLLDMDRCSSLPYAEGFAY

Sequence | binding signal
GCTTAA | 0.936
TTTCGC | 1.11
CAAATC | 1.06
CTATTG | 1.33
GACCGG | 0.949
TCCACT | 1.47
CGTTGC | 1.09
CTTCTT | 1.44
TCCGAT | 1.32
CTGACA | 1.19
TTTAAT | 1.4
TTGGTC | 1.16
GGCTAC | 1.17
ATCGCT | 1.09
TAGTGG | 1.18
CTTACT | 1.38
GGCTTT | 0.934
GTGGCC | 0.99
CACCCT | 1.21
TGCAGA | 0.983

Sequence | binding signal
TTGCGA | 1.19
CGTTTA | 1.08
GCCGCT | 1.09
CATCCT | 1.68
CCGCGG | 0.995
AGCAAT | 1.07
CATATG | 0.886
ATATCT | 1.25
GCGAAT | 0.944
ACGTAC | 1.24
GCAGCA | 0.918
GCGTTT | 1.1
GCTCGA | 1.22
GAATGG | 0.942
AGTCCC | 0.957
TACACT | 1.41
ATATAA | 1.15
GCCGAA | 0.947
GTATGA | 0.967
CTAGAT | 1.13

These sequences were tested against T2, EHF (UniProt Q9NZC4) in the same assay as above. Details: 10 mM Tris-HCl pH 7.5, 50 mM NaCl, 1 mM DTT, 4% glycerol, room temperature, 30 min; GST-TFs on glutathione beads, 16-mer random dsDNA library, 0.1% …; high values mean tight binding; double strand, one strand shown; scale: fold enrichment (6-mer frequency, TF over GST control).
T2 sequence: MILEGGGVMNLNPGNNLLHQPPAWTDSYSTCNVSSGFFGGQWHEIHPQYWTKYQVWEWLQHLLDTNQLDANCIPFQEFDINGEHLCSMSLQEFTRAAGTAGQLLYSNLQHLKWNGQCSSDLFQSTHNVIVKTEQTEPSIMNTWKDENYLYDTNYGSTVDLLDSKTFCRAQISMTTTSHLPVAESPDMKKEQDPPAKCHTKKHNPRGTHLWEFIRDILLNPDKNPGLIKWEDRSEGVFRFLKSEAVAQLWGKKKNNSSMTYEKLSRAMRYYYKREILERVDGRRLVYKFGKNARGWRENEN

Sequence | binding signal
GCTTAA | 0.992
GTGGCC | 0.971
TGCAGA | 0.937
CCGCGG | 0.938
GCGAAT | 1.17
GCAGCA | 0.972
GTATGA | 0.935
CTAGAT | 1.17

The sequences below were run against ETV5 (UniProt P41161) in the same assay as above. Details: 10 mM Tris-HCl pH 7.5, 50 mM NaCl, 1 mM DTT, 4% glycerol, room temperature, 30 min; GST-TFs on glutathione beads, 16-mer random dsDNA library, 0.1% …; high values mean tight binding; double strand, one strand shown; scale: fold enrichment (6-mer frequency, TF over GST control).

Sequence | binding signal
GCTTAA | 0.968
TTTCGC | 1.08
CAAATC | 1.14
CTATTG | 1.31
GACCGG | 1.12
TCCACT | 1.49
CGTTGC | 0.978
CTTCTT | 1.59
TCCGAT | 1.3
CTGACA | 1.22
TTTAAT | 1.32
TTGGTC | 1.1
GGCTAC | 1.22
ATCGCT | 1.07
TAGTGG | 1.11
CTTACT | 1.28
GGCTTT | 0.974
GTGGCC | 0.864
CACCCT | 1.19
TGCAGA | 0.966

Sequence | binding signal
TTGCGA | 1.15
CGTTTA | 0.99
GCCGCT | 0.991
CATCCT | 1.63
CCGCGG | 0.815
AGCAAT | 1.14
CATATG | 0.987
ATATCT | 1.1
GCGAAT | 0.935
ACGTAC | 1.21
GCAGCA | 0.992
GCGTTT | 1.09
GCTCGA | 1.22
GAATGG | 0.911
AGTCCC | 1.04
TACACT | 1.5
ATATAA | 1.15
GCCGAA | 0.979
GTATGA | 0.977
CTAGAT | 1.19

What follows are sequences tested against T3, ETV2 (UniProt O00321) in the same assay as above. Details: 10 mM Tris-HCl pH 7.5, 50 mM NaCl, 1 mM DTT, 4% glycerol, room temperature, 30 min; GST-TFs on glutathione beads, 16-mer random dsDNA library, 0.1% …; high values mean tight binding; double strand, one strand shown; scale: fold enrichment (6-mer frequency, TF over GST control).
T3 sequence: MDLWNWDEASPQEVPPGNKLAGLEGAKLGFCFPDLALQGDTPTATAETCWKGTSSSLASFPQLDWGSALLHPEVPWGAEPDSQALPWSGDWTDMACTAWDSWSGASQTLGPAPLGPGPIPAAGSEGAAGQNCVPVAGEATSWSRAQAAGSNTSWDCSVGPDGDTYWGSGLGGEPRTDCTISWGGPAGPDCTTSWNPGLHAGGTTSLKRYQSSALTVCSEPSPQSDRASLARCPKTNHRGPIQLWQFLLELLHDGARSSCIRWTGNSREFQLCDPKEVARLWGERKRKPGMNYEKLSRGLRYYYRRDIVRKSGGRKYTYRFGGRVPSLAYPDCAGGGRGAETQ

Sequence | binding signal
GCTTAA | 0.83
TTTCGC | 1.39
CAAATC | 1.1
CTATTG | 1.31
GACCGG | 0.957
TCCACT | 1.48
CGTTGC | 1.12
CTTCTT | 1.53
TCCGAT | 1.15
CTGACA | 1.2
TTTAAT | 1.06
TTGGTC | 0.984
GGCTAC | 0.929
ATCGCT | 0.924
TAGTGG | 1.15
CTTACT | 1.39
GTGGCC | 0.989
CACCCT | 1.26
TGCAGA | 0.958

Sequence | binding signal
TTGCGA | 1.1
CGTTTA | 1.03
GCCGCT | 0.938
CATCCT | 1.63
CCGCGG | 0.756
AGCAAT | 1.14
CATATG | 0.966
ATATCT | 1.3
GCGAAT | 0.932
ACGTAC | 1.32
GCAGCA | 1.01
GCGTTT | 1.11
GCTCGA | 1.07
AGTCCC | 0.93
TACACT | 1.46
ATATAA | 1.24
GCCGAA | 0.871
GTATGA | 0.853
CTAGAT | 1.17

These sequences were tested against T4, ETV3L (UniProt Q6ZN32) in the same assay as above. Details: 10 mM Tris-HCl pH 7.5, 50 mM NaCl, 1 mM DTT, 4% glycerol, room temperature, 30 min; GST-TFs on glutathione beads, 16-mer random dsDNA library, 0.1% …; high values mean tight binding; double strand, one strand shown; scale: fold enrichment (6-mer frequency, TF over GST control).
T4 sequence: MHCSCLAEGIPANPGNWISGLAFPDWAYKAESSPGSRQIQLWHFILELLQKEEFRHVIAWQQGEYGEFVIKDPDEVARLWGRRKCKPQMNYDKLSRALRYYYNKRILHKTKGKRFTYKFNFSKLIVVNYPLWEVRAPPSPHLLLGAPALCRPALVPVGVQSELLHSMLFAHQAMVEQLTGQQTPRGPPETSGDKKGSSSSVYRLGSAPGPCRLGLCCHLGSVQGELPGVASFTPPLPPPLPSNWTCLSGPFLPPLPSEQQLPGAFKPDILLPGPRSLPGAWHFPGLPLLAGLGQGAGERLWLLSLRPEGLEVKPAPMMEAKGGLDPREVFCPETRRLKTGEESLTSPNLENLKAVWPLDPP

Sequence | binding signal
GCTTAA | 1.05
GACCGG | 1.08
TCCACT | 1.49
TCCGAT | 1.22
TTGGTC | 1.08
GTGGCC | 0.977
TGCAGA | 0.905
CCGCGG | 0.989
GCGAAT | 1.06
GCAGCA | 0.943
GCGTTT | 1.11
GCCGAA | 0.961
GTATGA | 0.979
CTAGAT | 1.34

From PMC7862700
